Data as given in paper PMC2659420.
No constants are given. Whether binding was seen depends on the method and setting. Some entries that bind do so weakly or less than the wild type. Sequences can lack the tags named with a protein.

The chains behind the UniProt entries cited, without tags or fusion partners. Residues count along the entry.
UniProt P03973, residues 26-132: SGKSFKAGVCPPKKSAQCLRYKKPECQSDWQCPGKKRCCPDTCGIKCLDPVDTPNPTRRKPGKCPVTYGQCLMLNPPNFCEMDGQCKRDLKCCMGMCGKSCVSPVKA

Assays:
[1] = biological target: T1, GST-PLSCR1 (full length PLSCR1 fused to glutathione-S-transferase) (human) (UniProt O15162); experiment: pull-down; the same inhibition experiment, for the pair of purified soluble GST-SLPI and immobilised GST-PLSCR1 (displacement of CD4); both purified
T1 sequence: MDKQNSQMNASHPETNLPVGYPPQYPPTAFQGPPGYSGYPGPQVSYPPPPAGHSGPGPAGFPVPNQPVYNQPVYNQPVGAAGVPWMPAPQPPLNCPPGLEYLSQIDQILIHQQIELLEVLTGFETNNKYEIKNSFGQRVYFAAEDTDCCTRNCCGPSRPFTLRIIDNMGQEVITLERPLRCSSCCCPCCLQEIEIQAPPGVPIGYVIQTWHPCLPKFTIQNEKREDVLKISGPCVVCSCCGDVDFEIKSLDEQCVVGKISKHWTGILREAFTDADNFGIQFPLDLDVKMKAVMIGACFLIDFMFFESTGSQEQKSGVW

[2] = biological target: LexA-SLPI (a.a. 26-132), mature form of secretory leukocyte protease inhibitor fused to LexA (human) (UniProt P03973); experiment: two-hybrid
Non-tagged SLPI (human) = Non-tagged SLPI (human) (UniProt P03973); experiment: ELISA; plates coated with non-tagged SLPI at 0.25 µM; GST-PLSCR1 or GST at 1 nM to 1 µM, 2 h at 37°C in PBS-TB; anti-GST detection, OD 450 nm; both purified

With “GST-SLPI(26-132) (from UniProt P03973 26-132)” the binding [1] was “binds”.

B1: Gal4AD-PLSCR1 (full length phospholipid scramblase 1 fused to the Gal4 activation domain) (protein, UniProt O15162 1-318)
chain: T1 sequence
For B1, the binding [2] was “binds”.

B2: GST-PLSCR1 (full length PLSCR1 fused to glutathione-S-transferase) (protein, UniProt O15162 1-318)
chain: T1 sequence
B2 was tested, and the binding (Non-tagged SLPI (human)) was “binds”.

B3: Gal4AD-PLSCR1 (residues 155-233), minimal deleted form (domain or fragment, UniProt O15162 155-233)
chain: GPSRPFTLRIIDNMGQEVITLERPLRCSSCCCPCCLQEIEIQAPPGVPIGYVIQTWHPCLPKFTIQNEKREDVLKISGP
In the case of B3, the binding [2] is reported as “binds”.
